Results from the supplement of paper PMC9015667.
Structures can show the parent of a compound that is named as a salt. The list shows a part of the results. Repeats are few or missing, and single values can be far off.

What was measured:
Assay in all cases: reduction in cell viability relative to untreated/vehicle; higher = more growth inhibition
Settings in all cases: 200 nM; 72 h
M229P = system: M229P (parental melanoma line)
M229R = system: M229R (matched melanoma line resistant to BRAF inhibitors)
M238P = system: M238P (parental melanoma line)
M238R = system: M238R (matched melanoma line resistant to BRAF inhibitors)
M249P = system: M249P (parental melanoma line)
M249R = system: M249R (matched melanoma line resistant to BRAF inhibitors)
UACC62P = system: UACC62P (parental melanoma line)
UACC62R = system: UACC62R (matched melanoma line resistant to BRAF inhibitors)

| SMILES | reduction in cell viability (M229P) [%] | reduction in cell viability (M229R) [%] | reduction in cell viability (M238P) [%] | reduction in cell viability (M238R) [%] | reduction in cell viability (M249P) [%] | reduction in cell viability (M249R) [%] | reduction in cell viability (UACC62P) [%] | reduction in cell viability (UACC62R) [%] |
| --- | --- | --- | --- | --- | --- | --- | --- | --- |
| C[C@]12CC[C@H](O)CC1=CC[C@@H]1[C@@H]2CC[C@]2(C)C(c3cccnc3)=CC[C@@H]12 [Abiraterone] | < 0 | < 0 | < 0 | < 0 | < 0 | < 0 | 0.42 | < 0 |
| CN1CCC[C@@H]1CCO[C@](C)(c1ccccc1)c1ccc(Cl)cc1 [Clemastine fumarate] | < 0 | < 0 | < 0 | < 0 | < 0 | < 0 | < 0 | < 0 |
| O=C(Nc1ccccc1Br)N[C@@H]1CCN(c2ccc(C(F)(F)F)cn2)C1 | < 0 | < 0 | < 0 | < 0 | < 0 | < 0 | 6.05 | < 0 |
| C/C(=N\NC(=S)N1CCC1)c1ccccn1 | 50.6 | 42 | 48.1 | 61.2 | 32.8 | 32.4 | 39.7 | 66.1 |
| Oc1nc(-c2ccc(C(F)(F)F)cc2)nc2c1CSCC2 | < 0 | < 0 | < 0 | < 0 | < 0 | < 0 | 7.94 | < 0 |
| CC(=O)NCCC(=O)N[C@@H](CCC(N)=O)C(=O)N[C@@H](CO)C(=O)N[C@@H](CCC(N)=O)C(=O)N[C@@H](CCC(N)=O)C(=O)N[C@H](C(=O)N[C@@H](Cc1ccccc1)C(=O)N[C@]1(C)CCCCCC/C=C\CCC[C@@](C)(C(=O)N[C@@H](CCC(N)=O)C(=O)N[C@@H](CC(N)=O)C(N)=O)NC(=O)[C@H](CC(C)C)NC(=O)[C@H](CC(C)C)NC(=O)[C@@H](CCCNC(=N)N)NC(=O)[C@H](Cc2c[nH]c3ccccc23)NC(=O)[C@H](CC(C)C)NC(=O)[C@H](CC(N)=O)NC1=O)[C@H](C)O | < 0 | < 0 | < 0 | < 0 | < 0 | < 0 | < 0 | < 0 |
| CC1=C(CO)C(=O)O[C@@H]([C@@H](C)[C@H]2CC[C@H]3[C@@H]4C[C@H]5O[C@]56[C@@H](O)C=CC(=O)[C@]6(C)[C@H]4CC[C@]23C)C1 [Withaferin A] | 25.9 | 60.3 | 65.8 | 37.5 | < 0 | < 0 | 29.7 | 61.6 |
| CN(C)CC[C@H](CSc1ccccc1)Nc1ccc(S(=O)(=O)NC(=O)c2ccc(N3CCN(Cc4ccccc4-c4ccc(Cl)cc4)CC3)cc2)cc1[N+](=O)[O-] | < 0 | < 0 | < 0 | < 0 | < 0 | 6.08 | 7.08 | < 0 |
| Oc1cc(O)c(Cl)cn1 [Gimeracil] | < 0 | < 0 | < 0 | < 0 | < 0 | < 0 | 4.19 | < 0 |
| Cc1c(CCOc2ccc(C(=O)O)cc2)c2cc(Cl)ccc2n1C(c1ccccc1)c1ccccc1 | < 0 | < 0 | < 0 | < 0 | < 0 | < 0 | < 0 | < 0 |
| O=c1[nH]nc(OCCCc2ccc(Cl)cc2)c(NCc2cccnc2)c1Br [Parogrelil] | < 0 | < 0 | < 0 | < 0 | < 0 | < 0 | < 0 | < 0 |
| CCc1cccc(CC)c1NC(=O)N1Cc2[nH]nc(NC(=O)c3ccc(N4CCN(C)CC4)cc3)c2C1 | < 0 | < 0 | 11.6 | < 0 | 13.6 | < 0 | 26.2 | 34.1 |
| CNS(=O)(=O)Cc1ccc2[nH]cc(CCN(C)C)c2c1 [Sumatriptan succinate] | < 0 | < 0 | < 0 | < 0 | < 0 | < 0 | < 0 | < 0 |
| CNCCCC12CCC(c3ccccc31)c1ccccc12 [Maprotiline hydrochloride] | < 0 | < 0 | < 0 | < 0 | < 0 | 1.97 | < 0 | < 0 |
| CCC[C@@H](C=O)NC(=O)[C@H](CC(C)C)NC(=O)[C@H](CC(C)C)NC(=O)OCc1ccccc1 | 73.6 | 58 | 90.5 | 89.7 | 92.7 | 92.4 | 47.5 | 86 |
| O=C1CSC(=O)N1C(CCc1ccncc1)COc1ccc(-c2cccc([N+](=O)[O-])c2)cc1 (stereo unspecified) | < 0 | 2.42 | < 0 | < 0 | < 0 | < 0 | < 0 | < 0 |
| CC(C)(O)CCc1ccc(OCc2cc(-c3cccc(OC(F)F)c3)c3ncccc3c2)cc1 | < 0 | < 0 | < 0 | < 0 | < 0 | < 0 | < 0 | < 0 |
| CN(Cc1cc(Br)cc(Br)c1N)C1CCCCC1 [Bromhexine hydrochloride] | < 0 | < 0 | < 0 | 3.57 | < 0 | < 0 | < 0 | < 0 |
| CCOC(=O)[C@H](CCc1ccccc1)N[C@H]1CCc2ccccc2N(CC(=O)O)C1=O [Benazepril] | < 0 | 12.1 | < 0 | < 0 | < 0 | < 0 | < 0 | < 0 |
| C[C@H]1O[C@@H](O[C@H]2[C@@H](O)C[C@H](O[C@H]3[C@@H](O)C[C@H](O[C@H]4CC[C@@]5(C)[C@H](CC[C@@H]6[C@@H]5C[C@@H](O)[C@]5(C)[C@@H](C7=CC(=O)OC7)CC[C@]65O)C4)O[C@@H]3C)O[C@@H]2C)C[C@H](O)[C@@H]1O [Digoxin] | 60.3 | 70.8 | 69.4 | 84.2 | 86.5 | 88.6 | 91 | 89.3 |
| COc1cc2ncnc(Nc3ccc(F)c(Cl)c3)c2cc1NC(=O)/C=C/CN1CCCCC1 [Dacomitinib] | < 0 | < 0 | 3.72 | < 0 | < 0 | < 0 | < 0 | < 0 |

Random excerpt: two entries already listed

| SMILES | reduction in cell viability (M229P) [%] | reduction in cell viability (M229R) [%] | reduction in cell viability (M238P) [%] | reduction in cell viability (M238R) [%] | reduction in cell viability (M249P) [%] | reduction in cell viability (M249R) [%] | reduction in cell viability (UACC62P) [%] | reduction in cell viability (UACC62R) [%] |
| --- | --- | --- | --- | --- | --- | --- | --- | --- |
| CC(=O)NCCC(=O)N[C@@H](CCC(N)=O)C(=O)N[C@@H](CO)C(=O)N[C@@H](CCC(N)=O)C(=O)N[C@@H](CCC(N)=O)C(=O)N[C@H](C(=O)N[C@@H](Cc1ccccc1)C(=O)N[C@]1(C)CCCCCC/C=C\CCC[C@@](C)(C(=O)N[C@@H](CCC(N)=O)C(=O)N[C@@H](CC(N)=O)C(N)=O)NC(=O)[C@H](CC(C)C)NC(=O)[C@H](CC(C)C)NC(=O)[C@@H](CCCNC(=N)N)NC(=O)[C@H](Cc2c[nH]c3ccccc23)NC(=O)[C@H](CC(C)C)NC(=O)[C@H](CC(N)=O)NC1=O)[C@H](C)O | < 0 | < 0 | < 0 | < 0 | < 0 | < 0 | < 0 | < 0 |
| Cc1c(CCOc2ccc(C(=O)O)cc2)c2cc(Cl)ccc2n1C(c1ccccc1)c1ccccc1 | < 0 | < 0 | < 0 | < 0 | < 0 | < 0 | < 0 | < 0 |

Going on with the list:

| SMILES | reduction in cell viability (M229P) [%] | reduction in cell viability (M229R) [%] | reduction in cell viability (M238P) [%] | reduction in cell viability (M238R) [%] | reduction in cell viability (M249P) [%] | reduction in cell viability (M249R) [%] | reduction in cell viability (UACC62P) [%] | reduction in cell viability (UACC62R) [%] |
| --- | --- | --- | --- | --- | --- | --- | --- | --- |
| CS(=O)(=O)CCNCc1ccc(-c2ccc3ncnc(Nc4ccc(OCc5cccc(F)c5)c(Cl)c4)c3c2)o1 [Lapatinib] | < 0 | < 0 | < 0 | < 0 | < 0 | < 0 | < 0 | < 0 |
| C[C@]12CC[C@@H]3c4ccc(O)cc4CC[C@H]3[C@@H]1CC[C@@H]2O [beta-Estradiol] | < 0 | < 0 | < 0 | < 0 | < 0 | < 0 | < 0 | < 0 |
| COc1cc2c(cc1-c1c(C)noc1C)ncc1[nH]c(=O)n([C@H](C)c3ccccn3)c12 | < 0 | < 0 | < 0 | < 0 | < 0 | 19.3 | 19.4 | 9.61 |
| OCc1ccccc1O[C@@H]1O[C@H](CO)[C@@H](O)[C@H](O)[C@H]1O [Salicin] | < 0 | < 0 | < 0 | < 0 | < 0 | < 0 | < 0 | < 0 |
| NC(=O)c1cnc(-c2ccc(C3(N)CCC3)cc2)c(-c2ccccc2)c1 | < 0 | < 0 | < 0 | < 0 | < 0 | < 0 | < 0 | < 0 |
| c1cc(CN2CCCNCCNCCCNCC2)ccc1CN1CCCNCCNCCCNCC1 [Plerixafor hydrochloride] | < 0 | < 0 | < 0 | < 0 | < 0 | < 0 | < 0 | < 0 |
| O=C1CN2Cc3c(ccc(Cl)c3Cl)N=C2N1 [anagrelide] | < 0 | < 0 | < 0 | < 0 | 12.7 | < 0 | < 0 | 12.3 |
| Nc1ncnc2c1ncn2[C@@H]1O[C@H](CO)[C@@H](O)[C@H]1O [Adenosine] | < 0 | < 0 | < 0 | < 0 | < 0 | < 0 | < 0 | < 0 |
| CCOC(=O)[C@@H](N)CCC(=O)N[C@@H](CSCc1ccccc1)C(=O)N[C@@H](C(=O)OCC)c1ccccc1 [Ezatiostat] | < 0 | < 0 | 5.65 | 61.7 | 10.9 | 20.5 | < 0 | < 0 |
| CN(C)C(=O)C(CCN1CCC(O)(c2ccc(Cl)cc2)CC1)(c1ccccc1)c1ccccc1 [Loperamide] | < 0 | < 0 | < 0 | < 0 | < 0 | < 0 | < 0 | < 0 |
| CC(C(C)N1CC(=O)NC(=O)C1)N1CC(=O)NC(=O)C1 (stereo unspecified) | < 0 | < 0 | < 0 | < 0 | < 0 | < 0 | < 0 | < 0 |
| COc1ccc(C2CC(=O)c3c(O)cc(OC4OC(COC5OC(C)C(O)C(O)C5O)C(O)C(O)C4O)cc3O2)cc1OC (stereo unspecified) [Methyl Hesperidin] | < 0 | < 0 | < 0 | < 0 | < 0 | < 0 | < 0 | < 0 |
| O=C(c1ccc(OCCN2CCCCC2)cc1)c1c(-c2ccc(O)cc2)sc2cc(O)ccc12 [Raloxifene hydrochloride] | < 0 | < 0 | < 0 | < 0 | < 0 | < 0 | < 0 | < 0 |
| CCC(C)(C)c1ccc(CC(C)CN2C[C@@H](C)O[C@@H](C)C2)cc1 (stereo partly specified) [Amorolfine hydrochloride] | < 0 | < 0 | < 0 | < 0 | < 0 | < 0 | < 0 | < 0 |
| NCCCCNCCCN [Spermidine] | < 0 | < 0 | 1.16 | < 0 | < 0 | < 0 | < 0 | < 0 |
| Cc1c(C)n(Cc2ccc(-c3ccccc3C(=O)O)cc2)c2ccc(C(=O)N[C@@H](C)c3ccc([N+](=O)[O-])cc3)cc12 | < 0 | < 0 | < 0 | < 0 | < 0 | < 0 | < 0 | < 0 |
| O=C(NCc1ccncc1)C12CC3CC(C1)CC(c1ccc(Cl)cc1)(C3)C2 | < 0 | < 0 | < 0 | < 0 | < 0 | < 0 | < 0 | < 0 |
| Cc1nccn1CC1CCc2c(c3ccccc3n2C)C1=O (stereo unspecified) [Ondansetron] | < 0 | < 0 | < 0 | < 0 | < 0 | < 0 | < 0 | < 0 |
| C[C@H]1C[C@H]2[C@@H]3CCC4=CC(=O)C=C[C@]4(C)[C@@]3(F)[C@@H](O)C[C@]2(C)[C@@]1(O)C(=O)CO [Betamethasone] | < 0 | < 0 | < 0 | < 0 | < 0 | < 0 | < 0 | < 0 |
| C[C@H](NCc1ccc2c(c1)nc(NC(=O)c1ccc(-c3cn[nH]c3)s1)n2CCc1ccccc1)C(C)(C)C | 73.2 | 66.6 | 102 | 72.2 | 92.5 | 93.4 | 90 | 80.5 |
| Cn1c2cc([S+](C)[O-])sc2c2cnn(Cc3cccc(N)c3)c(=O)c21 (stereo unspecified) | < 0 | < 0 | < 0 | < 0 | < 0 | < 0 | < 0 | < 0 |
